# Measurements published in US20210024651A1.
# By UniProt entry, the sequences of proteins in these tests, tags left out. Where a name states a change or a piece, a line headed by the entry shows the natural chain unless it says otherwise. Chains listed by the source or under a name are the forms on record and can include a tag or linker. Residues count along the entry.
# cynomolgus macaque HER3 (G7PIG5, form named): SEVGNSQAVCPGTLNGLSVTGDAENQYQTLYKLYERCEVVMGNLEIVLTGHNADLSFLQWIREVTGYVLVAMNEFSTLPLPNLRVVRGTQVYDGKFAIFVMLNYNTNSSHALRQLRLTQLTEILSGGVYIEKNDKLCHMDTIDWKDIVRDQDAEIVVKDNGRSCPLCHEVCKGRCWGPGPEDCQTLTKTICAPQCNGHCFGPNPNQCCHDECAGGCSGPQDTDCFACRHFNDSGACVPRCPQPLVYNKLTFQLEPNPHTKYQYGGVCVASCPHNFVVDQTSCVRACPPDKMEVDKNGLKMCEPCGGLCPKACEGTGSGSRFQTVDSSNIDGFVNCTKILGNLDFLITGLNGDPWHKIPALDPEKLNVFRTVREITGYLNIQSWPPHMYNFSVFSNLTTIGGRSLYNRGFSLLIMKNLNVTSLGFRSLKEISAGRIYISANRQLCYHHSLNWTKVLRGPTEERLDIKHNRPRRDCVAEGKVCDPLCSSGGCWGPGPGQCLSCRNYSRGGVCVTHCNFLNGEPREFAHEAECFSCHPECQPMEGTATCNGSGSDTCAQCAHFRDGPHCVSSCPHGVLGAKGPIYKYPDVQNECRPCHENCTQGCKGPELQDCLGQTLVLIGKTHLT
# UniProt Q61526, residues 20-641: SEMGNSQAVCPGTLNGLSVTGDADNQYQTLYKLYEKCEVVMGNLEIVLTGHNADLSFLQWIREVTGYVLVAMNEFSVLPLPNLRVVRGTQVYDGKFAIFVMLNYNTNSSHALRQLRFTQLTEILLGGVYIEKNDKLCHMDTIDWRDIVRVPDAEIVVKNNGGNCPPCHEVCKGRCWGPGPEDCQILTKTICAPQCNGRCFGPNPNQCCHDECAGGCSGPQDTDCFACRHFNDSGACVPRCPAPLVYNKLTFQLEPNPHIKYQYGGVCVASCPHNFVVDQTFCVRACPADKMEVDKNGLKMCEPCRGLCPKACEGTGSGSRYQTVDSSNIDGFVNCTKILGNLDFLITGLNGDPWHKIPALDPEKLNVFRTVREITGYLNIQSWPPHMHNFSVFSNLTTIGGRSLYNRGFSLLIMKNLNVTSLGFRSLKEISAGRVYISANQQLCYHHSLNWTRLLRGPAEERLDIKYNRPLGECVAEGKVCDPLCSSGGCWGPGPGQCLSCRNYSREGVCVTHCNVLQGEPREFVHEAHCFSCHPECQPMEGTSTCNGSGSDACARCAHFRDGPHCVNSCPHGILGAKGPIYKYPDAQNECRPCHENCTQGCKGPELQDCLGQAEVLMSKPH
# UniProt Q62799, residues 20-643: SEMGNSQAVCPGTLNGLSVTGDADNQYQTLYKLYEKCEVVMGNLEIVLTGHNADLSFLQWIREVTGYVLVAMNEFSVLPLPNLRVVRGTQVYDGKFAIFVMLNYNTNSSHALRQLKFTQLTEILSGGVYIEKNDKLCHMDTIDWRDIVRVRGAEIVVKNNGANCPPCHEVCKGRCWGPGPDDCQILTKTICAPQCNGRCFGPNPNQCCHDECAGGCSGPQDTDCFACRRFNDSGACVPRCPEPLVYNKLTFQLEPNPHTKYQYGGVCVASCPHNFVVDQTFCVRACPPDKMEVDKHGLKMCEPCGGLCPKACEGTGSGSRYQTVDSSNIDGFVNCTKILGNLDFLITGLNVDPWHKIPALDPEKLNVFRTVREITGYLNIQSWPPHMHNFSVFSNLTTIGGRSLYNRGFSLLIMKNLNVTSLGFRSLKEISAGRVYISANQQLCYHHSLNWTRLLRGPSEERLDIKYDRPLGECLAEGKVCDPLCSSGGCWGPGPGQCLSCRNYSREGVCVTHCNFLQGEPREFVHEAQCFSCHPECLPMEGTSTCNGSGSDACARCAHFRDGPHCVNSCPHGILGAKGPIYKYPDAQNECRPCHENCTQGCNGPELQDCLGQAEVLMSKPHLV
# UniProt P21860: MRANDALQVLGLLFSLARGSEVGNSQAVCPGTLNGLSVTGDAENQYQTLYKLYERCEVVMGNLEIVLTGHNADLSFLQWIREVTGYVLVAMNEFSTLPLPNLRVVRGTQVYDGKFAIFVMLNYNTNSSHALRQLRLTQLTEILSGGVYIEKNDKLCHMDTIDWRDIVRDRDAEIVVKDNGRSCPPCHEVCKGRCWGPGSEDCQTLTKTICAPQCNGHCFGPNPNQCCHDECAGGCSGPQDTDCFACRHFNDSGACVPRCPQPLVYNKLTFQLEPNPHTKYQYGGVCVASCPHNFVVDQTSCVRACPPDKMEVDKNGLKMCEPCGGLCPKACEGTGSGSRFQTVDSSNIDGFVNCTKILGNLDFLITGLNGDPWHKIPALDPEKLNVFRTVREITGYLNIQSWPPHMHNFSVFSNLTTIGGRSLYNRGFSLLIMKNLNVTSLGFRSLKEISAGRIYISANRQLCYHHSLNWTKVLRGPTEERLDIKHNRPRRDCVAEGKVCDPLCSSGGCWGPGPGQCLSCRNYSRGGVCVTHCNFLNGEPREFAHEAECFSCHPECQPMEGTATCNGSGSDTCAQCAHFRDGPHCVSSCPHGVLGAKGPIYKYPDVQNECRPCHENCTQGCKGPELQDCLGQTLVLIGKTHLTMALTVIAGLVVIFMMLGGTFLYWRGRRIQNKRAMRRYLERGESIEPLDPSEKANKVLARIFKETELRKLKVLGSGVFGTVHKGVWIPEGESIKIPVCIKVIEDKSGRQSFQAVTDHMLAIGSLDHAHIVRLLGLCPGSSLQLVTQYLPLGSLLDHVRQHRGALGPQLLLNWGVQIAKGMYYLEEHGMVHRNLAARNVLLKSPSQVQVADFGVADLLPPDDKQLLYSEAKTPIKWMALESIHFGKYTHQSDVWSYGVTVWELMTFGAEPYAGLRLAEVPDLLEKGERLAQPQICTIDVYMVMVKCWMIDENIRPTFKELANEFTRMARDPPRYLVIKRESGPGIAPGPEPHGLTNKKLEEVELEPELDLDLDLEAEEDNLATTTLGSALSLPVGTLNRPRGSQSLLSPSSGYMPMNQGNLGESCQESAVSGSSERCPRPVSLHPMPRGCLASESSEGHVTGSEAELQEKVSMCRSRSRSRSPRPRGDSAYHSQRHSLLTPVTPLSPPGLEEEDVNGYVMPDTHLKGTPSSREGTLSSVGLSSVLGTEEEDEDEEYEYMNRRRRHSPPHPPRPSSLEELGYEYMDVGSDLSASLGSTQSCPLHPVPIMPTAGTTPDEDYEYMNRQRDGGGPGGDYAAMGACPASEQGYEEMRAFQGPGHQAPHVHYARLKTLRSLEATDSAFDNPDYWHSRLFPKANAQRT
# Positions count from the first letter of the chain named. No constants are given. Whether binding was seen depends on the method and setting. Some entries that bind do so weakly or less than the wild type.
# B1: anti-HER3 clone 4-35-B2 IgG1 (antibody, V domains shown)
# VH: EIQLQQSGPELVKPGASVKVSCKASGYSFTDYNMYWVKQSHGKSLEWIGHINPYNGGTTYNQKFKGRATLTVDKSSSTAFMHLNSLTSEDSAVYFCVSLRWGAMDYWGQGTSVTVSS
# VL: QIVLTQSPALMSASPGEKVTMTCSASSSVSYMYWYQQKPRSSPKPWIYLTSNLASGVPARFSGSGSGTSYSLTISSMEAEDAATYYCQQWNSNPYTFGGGTKLEIKR
# B2: anti-HER3 clone 4-35-B4 IgG1 (antibody, V domains shown)
# VH: EVQLQQSGAELVKPGASVKLSCTASGFNIKDTYIHWVKQRPDQGLEWIGKIIDPANGNTNYDPKFQGKATITADTSSNTAYLQLSSLSSEDTAVYFCARGLHWGQGTTLTVSS
# VL: DIVLTQSPASLAVSLGQRATISCRASKSVSTSGYSYMHWYQQKPGQPPKLLIYLASNLESGVPARFSGSGSGTDFTLNIHPVEEEDAATYYCQHSRELPYTFGGGTKLEIKR
# B3: anti-HER3 clone 10D1_c85o2 IgG1 (antibody, V domains shown)
# VH: DVQLQEWGAGLLKPSETLSLTCAVTGYSITSGYSWHWIRQFPGKGLEWIGSIRYSGGTNYNPSLKSRITISRDTSKNQFSLKLGSVTAADTAVYFCARGTTAPRYPFDYWGQGTLVTVSS
# VL: DIVMTQSPSSLSASVGDRVTITCKASQIVGSNVAWYQQKPGKSPKPLIYSARYQYSGVPFRFSGSGSGTDFTLTISSLQPEDVATYYCQQYSSHPLTFGPGTKVEIKR
# B4: 10D1F.FcA (anti-HER3 clone 10D1_c89 IgG1) (antibody, V domains shown)
# VH: QVQLQESGPGLVKPSQTLSLTCTVSGYSITSGYSWHWIRQHPGKGLEWIGSIRYSGGTDYNPSLKSLVTISADTSKNQFSLKLSSVTAADTAVYYCARMTTAPWYPFDYWGQGTTVTVSS
# VL: B3 VL with V3Q, L11V, S43A, K45E, R52S, Q54L, F60S, V83F, P100Q, V104L
# Tests used:
# [1] = target: cynomolgus macaque HER3 (cynomolgus macaque) (UniProt G7PIG5); test: ELISA, plate-coated target, antibody titrated from 10 µg/ml
# human EGFR (human) = human EGFR (human) (UniProt P00533); test: as above
# human HER2 (human) = human HER2 (human) (UniProt P04626); test: as above
# mouse HER3 (mouse) = mouse HER3 (mouse) (UniProt Q61526); test: as above
# rat HER3 (rat) = rat HER3 (rat) (UniProt Q62799); test: as above
# [2] = target: human HER3 expressed on cells (human) (UniProt P21860); test: flow cytometry on HEK293 cells overexpressing human HER3, 20 µg/ml antibody
# [3] = target: His-tagged human HER3 (recombinant human HER3 polypeptide) (human) (UniProt P21860); test: ELISA, plate-coated human HER3
# [4] = target: His-tagged human HER3 (recombinant human HER3 polypeptide) (human) (UniProt P21860); test: BLI (Octet QK384), antibody on AHC tips, His-tagged human HER3 in solution
binder,measurement,setting,value
B1,binding,[1],binds
B2,binding,[1],binds
same,binding,human EGFR (human),binds
same,binding,human HER2 (human),binds
same,binding,mouse HER3 (mouse),binds
same,binding,rat HER3 (rat),binds
same,binding,[2],binds
B3,binding,[3],binds
same,binding,[4],binds
B4,binding,[1],binds
